The list shows a part of the results. Repeats are few or missing, and single values can be far off.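 Cells were imaged in 1,536-well plates, and nuclei stained with an antibody against cleaved PARP were counted against all DNA-stained nuclei to give the apoptosis fraction. Screening doses were chosen to leave most cells alive, and resting and induced cleaved-PARP levels differ strongly between cell lines.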
What was measured:
Test in all cases: cleaved PARP positive nuclei fraction relative to DMSO control; melanoma cells; higher = more apoptosis
Conditions in all cases: library dose: low library concentration; 72 h
CBRC034 = test system: CBRC034 (line from a melanoma biopsy)
COLO792 = test system: COLO792
COLO800 = test system: COLO800
COLO829 = test system: COLO829
G361 = test system: G361
IPC-298 = test system: IPC-298
IST-MEL1 = test system: IST-MEL1
LB2518-MEL = test system: LB2518-MEL
LOXIMVI = test system: LOXIMVI
MZ2-MEL = test system: MZ2-MEL
MeWo = test system: MeWo
RPMI7951 = test system: RPMI7951
RVH-421 = test system: RVH-421
SkMel28 = test system: SkMel28
SkMel30 = test system: SkMel30
SkMel5 = test system: SkMel5
UACC257 = test system: UACC257
UACC62 = test system: UACC62

Structure (SMILES)	cleaved PARP positive nuclei fraction (CBRC034) [%]	cleaved PARP positive nuclei fraction (COLO792) [%]	cleaved PARP positive nuclei fraction (COLO800) [%]	cleaved PARP positive nuclei fraction (COLO829) [%]	cleaved PARP positive nuclei fraction (G361) [%]	cleaved PARP positive nuclei fraction (IPC-298) [%]	cleaved PARP positive nuclei fraction (IST-MEL1) [%]	cleaved PARP positive nuclei fraction (LB2518-MEL) [%]	cleaved PARP positive nuclei fraction (LOXIMVI) [%]	cleaved PARP positive nuclei fraction (MZ2-MEL) [%]	cleaved PARP positive nuclei fraction (MeWo) [%]	cleaved PARP positive nuclei fraction (RPMI7951) [%]	cleaved PARP positive nuclei fraction (RVH-421) [%]	cleaved PARP positive nuclei fraction (SkMel28) [%]	cleaved PARP positive nuclei fraction (SkMel30) [%]	cleaved PARP positive nuclei fraction (SkMel5) [%]	cleaved PARP positive nuclei fraction (UACC257) [%]	cleaved PARP positive nuclei fraction (UACC62) [%]
NCC(=O)Nc1ccc(-n2nc(C(F)(F)F)cc2-c2ccc3c(ccc4ccccc43)c2)cc1 + CCCCCCCCCCCC1=C(O)C(=O)C=C(O)C1=O [Embelin] (first compound 1 µM, partner dose 1.2 µM)	44.5	80.7	112	120	95.5	38.3	83.8	45.4	35.2	182	102	106	156	88.5	64.2	57.2	35	39.6
O=C(Nc1ccccc1)c1cc([N+](=O)[O-])ccc1Cl + O=C1NC(=O)/C(=C/c2ccc(-c3ccc(F)cc3O)o2)S1 [AS252424] (first compound 2 µM, partner dose 1 µM)	82.6	97.2	129	82.3	136	37.8	179	96.5	25.4	110	174	60.3	62	104	20	51.1	124	103
CN(NC(=O)CC(=O)NN(C)C(=S)c1ccccc1)C(=S)c1ccccc1 + Oc1cc(-c2nc(-c3ccccc3)[nH]c2-c2ccncc2)ccc1Cl [L779450] (first compound 0.006 µM, partner dose 0.2 µM)	164	162	49.9	153	114	195	49.2	215	65.4	92.2	270	73.2	89.3	146	77.7	60.6	91.9	185
CCc1ccc(CCOc2ccc(CC3SC(=O)NC3=O)cc2)nc1 (centres undefined) [pioglitazone] + N#Cc1c(O)c2c(-c3ccc(-c4ccccc4O)cc3)csc2[nH]c1=O [A769662] (first compound 2 µM, partner dose 2 µM)	141	155	128	66.6	29.7	40	54.8	83.3	82.2	90.2	54.1	255	68.8	106	83.8	25.6	80.3	64.6
c1cc(-c2cnn3cc(-c4ccc(OCCN5CCCCC5)cc4)cnc23)ccn1 [Dorsomorphin] + COc1cc(N2CCC(N3CCN(C)CC3)CC2)ccc1Nc1ncc(Cl)c(Nc2ccccc2S(=O)(=O)C(C)C)n1 [NVP-TAE684] (first compound 0.4 µM, partner dose 0.08 µM)	28.3	67.9	201	109	31.8	82.5	159	246	62	100	27.3	76.7	81.6	92.8	86.9	117	102	128
Cc1cc([N+](=O)[O-])ccc1NS(=O)(=O)c1cc(Cl)ccc1Cl + O=c1cc(-c2cccc3c2Sc2ccccc2S3)oc(N2CCOCC2)c1 [KU55933] (first compound 1 µM, partner dose 1 µM)	384	70.9	30.5	92.6	87.7	97.1	110	76.6	93.8	101	58.5	80.6	56.7	270	539	186	151	113
CN(C)S(=O)(=O)c1ccc2c(c1)/C(=C/c1cc3c([nH]1)CCCC3)C(=O)N2 + O=C(Nc1ccccc1)c1cc([N+](=O)[O-])ccc1Cl [GW9662] (first compound 0.4 µM, partner dose 2 µM)	49.6	71.5	103	180	207	58.4	85.5	106	56.9	154	169	86.9	82.6	123	130	137	108	46.9
COc1cc2ncnc(Nc3ccc(Oc4ccccc4)cc3)c2cc1OC + Oc1nc(-c2ccc(C(F)(F)F)cc2)nc2c1CSCC2 [XAV939] (first compound 2 µM, partner dose 2 µM)	95.5	205	113	35.9	56.2	118	54	138	191	202	112	74.2	47.8	175	31.6	86.4	170	141

Reference: the supplement of paper PMC4604168 (melanoma cell lines)
